From the supplement of paper PMC12823440, “Inhibitors supercharge kinase turnover through native proteolytic circuits” (Nature, 2025)
The list shows a part of the results. The calls rarely recur for the same compound in another form.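 Kinases were expressed as nanoluciferase fusions in K562 cells and luminescence was read every 4 h between 2 and 18 h as percent of control, DMSO set to 100% and a positive control to 0%. A time point counts as decreased when the signal drops significantly (2 sigma). The hit call is the authors' own, does not follow from the count of time points alone, and its rule is not shown.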

Amino acid sequences for entries named in this document (tags omitted).
UniProt P29317, whole entry: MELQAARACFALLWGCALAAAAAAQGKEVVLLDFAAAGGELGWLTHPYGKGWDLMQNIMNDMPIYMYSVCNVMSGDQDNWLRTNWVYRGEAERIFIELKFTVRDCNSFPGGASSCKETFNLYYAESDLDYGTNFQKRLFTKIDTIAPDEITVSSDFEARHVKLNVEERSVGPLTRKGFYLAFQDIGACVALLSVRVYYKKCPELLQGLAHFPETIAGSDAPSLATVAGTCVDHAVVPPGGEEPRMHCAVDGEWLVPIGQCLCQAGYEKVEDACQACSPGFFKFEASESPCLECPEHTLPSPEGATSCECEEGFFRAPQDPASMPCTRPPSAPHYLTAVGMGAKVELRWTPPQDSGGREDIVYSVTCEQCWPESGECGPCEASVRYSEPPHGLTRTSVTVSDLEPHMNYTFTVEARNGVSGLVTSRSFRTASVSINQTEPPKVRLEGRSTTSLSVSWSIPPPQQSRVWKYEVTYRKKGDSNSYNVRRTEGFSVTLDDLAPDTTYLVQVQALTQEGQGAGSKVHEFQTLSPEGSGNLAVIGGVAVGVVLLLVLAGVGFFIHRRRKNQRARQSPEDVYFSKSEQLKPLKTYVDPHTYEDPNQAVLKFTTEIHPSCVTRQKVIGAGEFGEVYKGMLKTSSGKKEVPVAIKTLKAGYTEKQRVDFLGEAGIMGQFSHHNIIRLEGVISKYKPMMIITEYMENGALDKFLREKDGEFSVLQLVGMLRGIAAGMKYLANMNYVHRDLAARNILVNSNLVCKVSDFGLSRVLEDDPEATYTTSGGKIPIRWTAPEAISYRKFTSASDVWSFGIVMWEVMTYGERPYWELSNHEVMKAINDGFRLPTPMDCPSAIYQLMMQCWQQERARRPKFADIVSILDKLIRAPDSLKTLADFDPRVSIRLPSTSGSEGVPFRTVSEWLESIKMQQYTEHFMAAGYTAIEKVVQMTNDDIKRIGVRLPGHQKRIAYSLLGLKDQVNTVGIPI
UniProt P21860, whole entry: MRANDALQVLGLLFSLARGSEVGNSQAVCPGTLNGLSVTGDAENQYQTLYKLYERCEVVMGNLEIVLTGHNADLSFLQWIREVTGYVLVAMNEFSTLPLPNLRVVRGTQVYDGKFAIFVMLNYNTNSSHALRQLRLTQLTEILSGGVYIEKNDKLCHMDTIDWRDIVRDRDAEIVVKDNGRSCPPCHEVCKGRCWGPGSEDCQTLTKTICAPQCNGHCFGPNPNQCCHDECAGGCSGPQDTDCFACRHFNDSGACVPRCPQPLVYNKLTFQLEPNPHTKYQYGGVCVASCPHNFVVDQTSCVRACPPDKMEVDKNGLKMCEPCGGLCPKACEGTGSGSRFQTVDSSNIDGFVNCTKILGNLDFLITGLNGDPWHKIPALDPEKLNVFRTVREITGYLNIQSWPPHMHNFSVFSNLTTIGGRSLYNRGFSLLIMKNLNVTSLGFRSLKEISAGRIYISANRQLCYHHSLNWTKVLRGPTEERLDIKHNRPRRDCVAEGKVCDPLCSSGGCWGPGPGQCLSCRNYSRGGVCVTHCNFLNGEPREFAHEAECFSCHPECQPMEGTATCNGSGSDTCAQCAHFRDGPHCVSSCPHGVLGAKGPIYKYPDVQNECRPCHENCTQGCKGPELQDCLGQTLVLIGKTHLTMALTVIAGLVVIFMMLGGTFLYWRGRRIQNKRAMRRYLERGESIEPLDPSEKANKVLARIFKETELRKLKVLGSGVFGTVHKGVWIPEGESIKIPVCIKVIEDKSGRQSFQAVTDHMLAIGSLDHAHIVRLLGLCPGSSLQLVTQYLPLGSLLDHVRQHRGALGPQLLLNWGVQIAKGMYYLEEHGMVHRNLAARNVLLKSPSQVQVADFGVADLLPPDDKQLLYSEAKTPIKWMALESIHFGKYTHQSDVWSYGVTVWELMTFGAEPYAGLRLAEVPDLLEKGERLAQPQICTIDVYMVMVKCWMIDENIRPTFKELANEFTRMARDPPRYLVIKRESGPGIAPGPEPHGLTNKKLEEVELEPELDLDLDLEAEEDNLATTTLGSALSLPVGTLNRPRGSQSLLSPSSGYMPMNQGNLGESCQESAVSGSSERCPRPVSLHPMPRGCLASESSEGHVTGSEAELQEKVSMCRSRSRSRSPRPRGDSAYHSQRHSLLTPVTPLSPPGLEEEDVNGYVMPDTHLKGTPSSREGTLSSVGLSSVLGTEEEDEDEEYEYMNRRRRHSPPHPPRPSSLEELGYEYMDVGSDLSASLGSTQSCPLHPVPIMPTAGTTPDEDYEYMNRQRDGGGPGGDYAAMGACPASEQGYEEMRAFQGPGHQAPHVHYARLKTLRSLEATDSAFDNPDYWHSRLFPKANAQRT
UniProt Q15303, whole entry R711C: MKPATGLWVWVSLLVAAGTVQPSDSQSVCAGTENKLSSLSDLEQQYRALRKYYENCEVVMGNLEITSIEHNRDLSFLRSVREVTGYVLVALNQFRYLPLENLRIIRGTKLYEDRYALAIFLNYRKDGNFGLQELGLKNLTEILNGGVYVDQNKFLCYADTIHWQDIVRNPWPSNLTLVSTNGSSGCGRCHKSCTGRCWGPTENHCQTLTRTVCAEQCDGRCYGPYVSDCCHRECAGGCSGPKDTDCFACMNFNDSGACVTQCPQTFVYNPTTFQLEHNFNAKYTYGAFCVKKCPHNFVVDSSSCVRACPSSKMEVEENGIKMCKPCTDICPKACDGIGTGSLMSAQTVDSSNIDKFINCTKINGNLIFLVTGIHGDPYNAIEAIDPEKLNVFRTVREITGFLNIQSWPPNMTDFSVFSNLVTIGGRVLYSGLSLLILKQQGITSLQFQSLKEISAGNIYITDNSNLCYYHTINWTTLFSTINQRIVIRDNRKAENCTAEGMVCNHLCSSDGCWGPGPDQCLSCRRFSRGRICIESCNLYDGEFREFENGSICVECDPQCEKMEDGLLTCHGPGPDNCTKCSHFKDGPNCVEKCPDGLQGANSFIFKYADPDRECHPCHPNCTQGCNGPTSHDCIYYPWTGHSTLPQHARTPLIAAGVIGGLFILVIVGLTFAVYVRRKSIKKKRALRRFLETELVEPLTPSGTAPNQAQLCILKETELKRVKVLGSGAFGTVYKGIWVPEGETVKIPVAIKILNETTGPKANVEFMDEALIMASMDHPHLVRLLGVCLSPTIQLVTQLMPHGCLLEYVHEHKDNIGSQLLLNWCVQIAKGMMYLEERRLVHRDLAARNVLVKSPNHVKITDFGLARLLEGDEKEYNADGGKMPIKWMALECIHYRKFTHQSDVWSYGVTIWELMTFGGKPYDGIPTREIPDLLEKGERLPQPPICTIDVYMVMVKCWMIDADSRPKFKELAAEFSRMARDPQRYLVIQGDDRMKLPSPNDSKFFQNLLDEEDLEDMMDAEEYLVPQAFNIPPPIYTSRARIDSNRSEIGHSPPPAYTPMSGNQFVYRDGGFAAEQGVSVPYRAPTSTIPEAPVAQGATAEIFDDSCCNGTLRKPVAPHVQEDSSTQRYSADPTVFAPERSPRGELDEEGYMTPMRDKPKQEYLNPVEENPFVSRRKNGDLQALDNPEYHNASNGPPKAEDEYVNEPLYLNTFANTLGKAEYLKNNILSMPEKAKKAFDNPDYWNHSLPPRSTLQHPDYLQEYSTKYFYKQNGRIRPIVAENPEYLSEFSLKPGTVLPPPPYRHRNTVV
UniProt P11362, whole entry, looked up: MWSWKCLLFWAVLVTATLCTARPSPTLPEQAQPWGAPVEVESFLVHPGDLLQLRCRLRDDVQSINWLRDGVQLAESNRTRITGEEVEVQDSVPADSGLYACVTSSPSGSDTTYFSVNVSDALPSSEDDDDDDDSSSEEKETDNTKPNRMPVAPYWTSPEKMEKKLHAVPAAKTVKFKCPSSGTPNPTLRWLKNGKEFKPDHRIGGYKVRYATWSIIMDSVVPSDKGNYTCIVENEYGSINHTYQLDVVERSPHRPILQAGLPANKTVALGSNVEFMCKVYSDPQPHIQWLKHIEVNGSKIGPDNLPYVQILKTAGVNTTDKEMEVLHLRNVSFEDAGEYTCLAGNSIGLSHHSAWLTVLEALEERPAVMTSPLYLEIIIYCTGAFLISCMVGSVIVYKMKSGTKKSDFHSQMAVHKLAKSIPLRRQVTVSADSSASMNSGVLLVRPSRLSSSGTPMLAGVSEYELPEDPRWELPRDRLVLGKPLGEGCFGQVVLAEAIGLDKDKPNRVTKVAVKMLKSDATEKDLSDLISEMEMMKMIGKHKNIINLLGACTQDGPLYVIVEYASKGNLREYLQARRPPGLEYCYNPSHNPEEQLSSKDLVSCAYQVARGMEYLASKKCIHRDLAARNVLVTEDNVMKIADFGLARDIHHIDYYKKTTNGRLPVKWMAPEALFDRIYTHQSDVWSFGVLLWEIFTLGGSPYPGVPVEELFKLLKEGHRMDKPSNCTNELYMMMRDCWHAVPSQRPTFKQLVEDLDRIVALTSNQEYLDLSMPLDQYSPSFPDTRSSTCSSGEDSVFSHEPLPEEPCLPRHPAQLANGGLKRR
UniProt P21802, whole entry, looked up: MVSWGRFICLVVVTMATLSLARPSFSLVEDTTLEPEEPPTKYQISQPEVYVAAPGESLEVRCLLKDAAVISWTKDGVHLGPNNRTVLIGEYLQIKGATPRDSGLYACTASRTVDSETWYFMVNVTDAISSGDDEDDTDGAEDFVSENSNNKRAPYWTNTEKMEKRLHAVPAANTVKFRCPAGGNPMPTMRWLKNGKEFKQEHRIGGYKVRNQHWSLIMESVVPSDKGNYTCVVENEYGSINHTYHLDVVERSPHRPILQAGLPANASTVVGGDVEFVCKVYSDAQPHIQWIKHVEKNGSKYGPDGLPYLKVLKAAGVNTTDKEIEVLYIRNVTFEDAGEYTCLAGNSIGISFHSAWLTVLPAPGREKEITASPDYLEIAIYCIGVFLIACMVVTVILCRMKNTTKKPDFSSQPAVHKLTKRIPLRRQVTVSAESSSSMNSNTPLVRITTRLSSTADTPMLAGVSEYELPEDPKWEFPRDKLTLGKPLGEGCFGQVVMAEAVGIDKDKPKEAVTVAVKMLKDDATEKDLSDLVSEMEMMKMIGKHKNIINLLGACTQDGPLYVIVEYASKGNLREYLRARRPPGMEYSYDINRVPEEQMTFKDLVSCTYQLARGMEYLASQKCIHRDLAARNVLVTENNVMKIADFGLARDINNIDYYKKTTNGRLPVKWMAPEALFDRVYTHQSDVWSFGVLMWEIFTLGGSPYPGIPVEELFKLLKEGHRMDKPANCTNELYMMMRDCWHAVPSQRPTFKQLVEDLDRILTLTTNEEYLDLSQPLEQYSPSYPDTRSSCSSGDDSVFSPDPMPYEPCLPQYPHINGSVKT
UniProt P36888, whole entry: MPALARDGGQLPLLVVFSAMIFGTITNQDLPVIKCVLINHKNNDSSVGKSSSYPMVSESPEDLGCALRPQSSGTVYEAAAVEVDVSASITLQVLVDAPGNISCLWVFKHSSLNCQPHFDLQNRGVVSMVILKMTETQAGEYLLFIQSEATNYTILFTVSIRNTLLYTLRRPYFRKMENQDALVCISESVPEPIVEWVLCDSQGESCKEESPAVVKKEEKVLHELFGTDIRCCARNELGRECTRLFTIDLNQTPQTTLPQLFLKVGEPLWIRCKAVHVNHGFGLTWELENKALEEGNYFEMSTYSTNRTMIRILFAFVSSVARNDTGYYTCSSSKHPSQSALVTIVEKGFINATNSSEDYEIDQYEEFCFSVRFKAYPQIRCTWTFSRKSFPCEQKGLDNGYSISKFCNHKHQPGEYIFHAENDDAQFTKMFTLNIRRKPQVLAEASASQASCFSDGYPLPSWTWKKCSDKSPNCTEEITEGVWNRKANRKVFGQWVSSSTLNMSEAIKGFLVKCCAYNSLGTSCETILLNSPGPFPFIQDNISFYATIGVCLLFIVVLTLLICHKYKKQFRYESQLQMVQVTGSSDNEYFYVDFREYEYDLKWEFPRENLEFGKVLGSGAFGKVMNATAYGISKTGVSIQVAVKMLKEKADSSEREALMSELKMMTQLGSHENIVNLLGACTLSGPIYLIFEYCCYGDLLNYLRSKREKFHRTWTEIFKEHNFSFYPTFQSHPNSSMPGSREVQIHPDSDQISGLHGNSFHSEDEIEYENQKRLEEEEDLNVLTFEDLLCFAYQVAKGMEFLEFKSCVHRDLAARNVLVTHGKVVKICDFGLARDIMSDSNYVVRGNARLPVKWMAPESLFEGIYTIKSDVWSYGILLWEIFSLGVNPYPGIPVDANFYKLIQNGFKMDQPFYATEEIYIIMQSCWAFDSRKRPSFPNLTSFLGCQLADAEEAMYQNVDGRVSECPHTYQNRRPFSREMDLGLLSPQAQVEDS

Key:
Assay in all cases: kinase-Nluc reporter destabilization hit call (1 = scored as downregulated) (binary); higher = compound decreases kinase abundance
Settings in all cases: K562; 2-18 h
EGFR = EGFR (UniProt P00533)
EGFR_G719S = EGFR_G719S (UniProt P00533)
EGFR_G719S_T790M = EGFR_G719S_T790M (UniProt P00533)
EGFR_L718V = EGFR_L718V (UniProt P00533)
EGFR_L858R = EGFR_L858R (UniProt P00533)
EGFR_L861Q = EGFR_L861Q (UniProt P00533)
EGFR_T790M = EGFR_T790M (UniProt P00533)
EPHA2 = EPHA2 (UniProt P29317)
ERBB3 = ERBB3 (UniProt P21860)
[1] = biological target: ERBB4_R711C (clone: ERBB4_mut) (UniProt Q15303)
ERN1 = ERN1 (UniProt O75460)
FGFR1 = FGFR1 (UniProt P11362)
FGFR2 = FGFR2 (UniProt P21802)
FGFR3 = FGFR3 (UniProt P22607)
FGR = FGR (UniProt P09769)
FLT3 = FLT3 (UniProt P36888)
FYN = FYN (UniProt P06241)
GSK3A = GSK3A (UniProt P49840)
HER2 = HER2 (UniProt P04626)
INSRR = INSRR (UniProt P14616)

Measured: kinase-Nluc reporter destabilization hit call

COc1ccc(-c2c(C)nn3c(NCCN4CCOCC4)cc(C)nc23)cc1OC (10 µM)
inactive: EGFR 0 | EGFR_G719S 0 | EGFR_G719S_T790M 0 | EGFR_L718V 0 | EGFR_L858R 0 | EGFR_L861Q 0 | EGFR_T790M 0 | EPHA2 = 0 | ERBB3 = 0 | [1] 0 | ERN1 = 0 | FGFR1 = 0 | FGFR2 = 0 | FGFR3 = 0 | FGR 0 | FLT3 = 0 | FYN 0 | GSK3A 0 | HER2 = 0 | INSRR 0

O=c1cc(N2CCOCC2)nc2c3ccccc3ccn12 [Compound 401] (10 µM)
inactive: EGFR 0 | EGFR_G719S 0 | EGFR_G719S_T790M 0 | EGFR_L718V 0 | EGFR_L858R 0 | EGFR_L861Q 0 | EGFR_T790M 0 | EPHA2 = 0 | ERBB3 = 0 | [1] 0 | ERN1 = 0 | FGFR1 = 0 | FGFR2 = 0 | FGFR3 = 0 | FGR 0 | FLT3 = 0 | FYN 0 | GSK3A 0 | HER2 = 0 | INSRR 0

CCc1cncnc1N1CCN(Cc2nc3ccc(C(F)(F)F)cc3[nH]2)CC1 (10 µM)
inactive: EGFR 0 | EGFR_G719S 0 | EGFR_G719S_T790M 0 | EGFR_L718V 0 | EGFR_L858R 0 | EGFR_L861Q 0 | EGFR_T790M 0 | EPHA2 = 0 | ERBB3 = 0 | [1] 0 | ERN1 = 0 | FGFR1 = 0 | FGFR2 = 0 | FGFR3 = 0 | FGR 0 | FLT3 = 0 | FYN 0 | GSK3A 0 | HER2 = 0 | INSRR 0

Cc1cc(-c2ccnc(Nc3cnn(C)c3)n2)ccc1CNC(=O)N1CC(OC(C)C)C1 (10 µM)
inactive: EGFR 0 | EGFR_G719S 0 | EGFR_G719S_T790M 0 | EGFR_L718V 0 | EGFR_L858R 0 | EGFR_L861Q 0 | EGFR_T790M 0 | EPHA2 = 0 | ERBB3 = 0 | [1] 0 | ERN1 = 0 | FGFR1 = 0 | FGFR2 = 0 | FGFR3 = 0 | FGR 0 | FLT3 = 0 | FYN 0 | GSK3A 0 | HER2 = 0 | INSRR 0

O=C(O)c1cc(N(Cc2ccccc2O)Cc2ccccc2O)ccc1O [Lavendustin B] (10 µM)
inactive: EGFR 0 | EGFR_G719S 0 | EGFR_G719S_T790M 0 | EGFR_L718V 0 | EGFR_L858R 0 | EGFR_L861Q 0 | EGFR_T790M 0 | EPHA2 = 0 | ERBB3 = 0 | [1] 0 | ERN1 = 0 | FGFR1 = 0 | FGFR2 = 0 | FGFR3 = 0 | FGR 0 | FLT3 = 0 | FYN 0 | GSK3A 0 | HER2 = 0 | INSRR 0

Cc1nn(C)c2c1C(c1ccc(C(F)(F)F)cc1)C(C#N)=C(N)O2 (stereo not given) (10 µM)
inactive: EGFR 0 | EGFR_G719S 0 | EGFR_G719S_T790M 0 | EGFR_L718V 0 | EGFR_L858R 0 | EGFR_L861Q 0 | EGFR_T790M 0 | EPHA2 = 0 | ERBB3 = 0 | [1] 0 | ERN1 = 0 | FGFR1 = 0 | FGFR2 = 0 | FGFR3 = 0 | FGR 0 | FLT3 = 0 | FYN 0 | GSK3A 0 | HER2 = 0 | INSRR 0

O[C@@H]1CO[C@H]2[C@@H]1OC[C@H]2Oc1nc2nc(-c3ccc(-c4ccccc4)cc3)c(Cl)cc2[nH]1 (10 µM)
inactive: EGFR 0 | EGFR_G719S 0 | EGFR_G719S_T790M 0 | EGFR_L718V 0 | EGFR_L858R 0 | EGFR_L861Q 0 | EGFR_T790M 0 | EPHA2 = 0 | ERBB3 = 0 | [1] 0 | ERN1 = 0 | FGFR1 = 0 | FGFR2 = 0 | FGFR3 = 0 | FGR 0 | FLT3 = 0 | FYN 0 | GSK3A 0 | HER2 = 0 | INSRR 0

O=C1O[C@H]([C@@H](O)CO)C(O)=C1OP(=O)(O)O [2-Phospho-L-ascorbic acid (trisodium)] (10 µM)
inactive: EGFR 0 | EGFR_G719S 0 | EGFR_G719S_T790M 0 | EGFR_L718V 0 | EGFR_L858R 0 | EGFR_L861Q 0 | EGFR_T790M 0 | EPHA2 = 0 | ERBB3 = 0 | [1] 0 | ERN1 = 0 | FGFR1 = 0 | FGFR2 = 0 | FGFR3 = 0 | FGR 0 | FLT3 = 0 | FYN 0 | GSK3A 0 | HER2 = 0 | INSRR 0

Cc1ccc(C(=O)Nc2sc(Nc3ccccc3)nc2C(N)=O)cc1 (10 µM)
inactive: EGFR 0 | EGFR_G719S 0 | EGFR_G719S_T790M 0 | EGFR_L718V 0 | EGFR_L858R 0 | EGFR_L861Q 0 | EGFR_T790M 0 | EPHA2 = 0 | ERBB3 = 0 | [1] 0 | ERN1 = 0 | FGFR1 = 0 | FGFR2 = 0 | FGFR3 = 0 | FGR 0 | FLT3 = 0 | FYN 0 | GSK3A 0 | HER2 = 0 | INSRR 0

Cn1cc(-c2c[nH]c3ncnc(N4CCOCC4)c23)cc1C#N (10 µM)
inactive: EGFR 0 | EGFR_G719S 0 | EGFR_G719S_T790M 0 | EGFR_L718V 0 | EGFR_L858R 0 | EGFR_L861Q 0 | EGFR_T790M 0 | EPHA2 = 0 | ERBB3 = 0 | [1] 0 | ERN1 = 0 | FGFR1 = 0 | FGFR2 = 0 | FGFR3 = 0 | FGR 0 | FLT3 = 0 | FYN 0 | GSK3A 0 | HER2 = 0 | INSRR 0

Cc1cccc2c3c(ccc12)C(=O)C1=C(OCC1C)C3=O (stereo not given) [Dihydroisotanshinone I] (2.5 µM)
inactive: EGFR 0 | EGFR_G719S 0 | EGFR_G719S_T790M 0 | EGFR_L718V 0 | EGFR_L858R 0 | EGFR_L861Q 0 | EGFR_T790M 0 | EPHA2 = 0 | ERBB3 = 0 | [1] 0 | ERN1 = 0 | FGFR1 = 0 | FGFR2 = 0 | FGFR3 = 0 | FGR 0 | FLT3 = 0 | FYN 0 | GSK3A 0 | HER2 = 0 | INSRR 0

c1ccc(-c2nc3c(c(-n4ccc5cnccc54)n2)CCC3)nc1 (10 µM)
inactive: EGFR 0 | EGFR_G719S 0 | EGFR_G719S_T790M 0 | EGFR_L718V 0 | EGFR_L858R 0 | EGFR_L861Q 0 | EGFR_T790M 0 | EPHA2 = 0 | ERBB3 = 0 | [1] 0 | ERN1 = 0 | FGFR1 = 0 | FGFR2 = 0 | FGFR3 = 0 | FGR 0 | FLT3 = 0 | FYN 0 | GSK3A 0 | HER2 = 0 | INSRR 0

N#Cc1ccnc(Nc2cc(C3CCN(C4COC4)CC3)cc(N3CCC(F)(F)C3)n2)c1 (2.5 µM)
inactive: EGFR 0 | EGFR_G719S 0 | EGFR_G719S_T790M 0 | EGFR_L718V 0 | EGFR_L858R 0 | EGFR_L861Q 0 | EGFR_T790M 0 | EPHA2 = 0 | ERBB3 = 0 | [1] 0 | ERN1 = 0 | FGFR1 = 0 | FGFR2 = 0 | FGFR3 = 0 | FGR 0 | FLT3 = 0 | FYN 0 | GSK3A 0 | HER2 = 0 | INSRR 0

CCCCCCCCCCCCCCCCOP(=O)([O-])OCC[N+](C)(C)C [Miltefosine] (10 µM)
inactive: EGFR 0 | EGFR_G719S 0 | EGFR_G719S_T790M 0 | EGFR_L718V 0 | EGFR_L858R 0 | EGFR_L861Q 0 | EGFR_T790M 0 | EPHA2 = 0 | ERBB3 = 0 | [1] 0 | ERN1 = 0 | FGFR1 = 0 | FGFR2 = 0 | FGFR3 = 0 | FGR 0 | FLT3 = 0 | FYN 0 | GSK3A 0 | HER2 = 0 | INSRR 0

COc1ncccc1-c1cnn2ccc(N3CCN(C(=O)OC(C)C)CC3)nc12 (10 µM)
inactive: EGFR 0 | EGFR_G719S 0 | EGFR_G719S_T790M 0 | EGFR_L718V 0 | EGFR_L858R 0 | EGFR_L861Q 0 | EGFR_T790M 0 | EPHA2 = 0 | ERBB3 = 0 | [1] 0 | ERN1 = 0 | FGFR1 = 0 | FGFR2 = 0 | FGFR3 = 0 | FGR 0 | FLT3 = 0 | FYN 0 | GSK3A 0 | HER2 = 0 | INSRR 0

CC(C)(C)n1nc(Cc2ccccc2O)c2c(N)ncnc21 (10 µM)
inactive: EGFR 0 | EGFR_G719S 0 | EGFR_G719S_T790M 0 | EGFR_L718V 0 | EGFR_L858R 0 | EGFR_L861Q 0 | EGFR_T790M 0 | EPHA2 = 0 | ERBB3 = 0 | [1] 0 | ERN1 = 0 | FGFR1 = 0 | FGFR2 = 0 | FGFR3 = 0 | FGR 0 | FLT3 = 0 | FYN 0 | GSK3A 0 | HER2 = 0 | INSRR 0

Some of these compounds in order of formula weight, ascending.
O=C(O)c1cc(N(Cc2ccccc2O)Cc2ccccc2O)ccc1O [Lavendustin B] (10 µM)
inactive: EGFR 0 | EGFR_G719S 0 | EGFR_G719S_T790M 0 | EGFR_L718V 0 | EGFR_L858R 0 | EGFR_L861Q 0 | EGFR_T790M 0 | EPHA2 = 0 | ERBB3 = 0 | [1] 0 | ERN1 = 0 | FGFR1 = 0 | FGFR2 = 0 | FGFR3 = 0 | FGR 0 | FLT3 = 0 | FYN 0 | GSK3A 0 | HER2 = 0 | INSRR 0

CCc1cncnc1N1CCN(Cc2nc3ccc(C(F)(F)F)cc3[nH]2)CC1 (10 µM)
inactive: EGFR 0 | EGFR_G719S 0 | EGFR_G719S_T790M 0 | EGFR_L718V 0 | EGFR_L858R 0 | EGFR_L861Q 0 | EGFR_T790M 0 | EPHA2 = 0 | ERBB3 = 0 | [1] 0 | ERN1 = 0 | FGFR1 = 0 | FGFR2 = 0 | FGFR3 = 0 | FGR 0 | FLT3 = 0 | FYN 0 | GSK3A 0 | HER2 = 0 | INSRR 0

CCCCCCCCCCCCCCCCOP(=O)([O-])OCC[N+](C)(C)C [Miltefosine] (10 µM)
inactive: EGFR 0 | EGFR_G719S 0 | EGFR_G719S_T790M 0 | EGFR_L718V 0 | EGFR_L858R 0 | EGFR_L861Q 0 | EGFR_T790M 0 | EPHA2 = 0 | ERBB3 = 0 | [1] 0 | ERN1 = 0 | FGFR1 = 0 | FGFR2 = 0 | FGFR3 = 0 | FGR 0 | FLT3 = 0 | FYN 0 | GSK3A 0 | HER2 = 0 | INSRR 0

COc1ccc(-c2c(C)nn3c(NCCN4CCOCC4)cc(C)nc23)cc1OC (10 µM)
inactive: EGFR 0 | EGFR_G719S 0 | EGFR_G719S_T790M 0 | EGFR_L718V 0 | EGFR_L858R 0 | EGFR_L861Q 0 | EGFR_T790M 0 | EPHA2 = 0 | ERBB3 = 0 | [1] 0 | ERN1 = 0 | FGFR1 = 0 | FGFR2 = 0 | FGFR3 = 0 | FGR 0 | FLT3 = 0 | FYN 0 | GSK3A 0 | HER2 = 0 | INSRR 0

Further structures follow.

O=C1NC(=O)C(c2cnc3ccccn23)=C1c1cn2c3c(cc(F)cc13)CNCC2 [GSK-3 inhibitor 1] (2.5 µM)
inactive: EGFR 0 | EGFR_G719S 0 | EGFR_G719S_T790M 0 | EGFR_L718V 0 | EGFR_L858R 0 | EGFR_L861Q 0 | EGFR_T790M 0 | EPHA2 = 0 | ERBB3 = 0 | [1] 0 | ERN1 = 0 | FGFR1 = 0 | FGFR2 = 0 | FGFR3 = 0 | FGR 0 | FLT3 = 0 | FYN 0 | GSK3A 0 | HER2 = 0 | INSRR 0
